Results from PubChem BioAssay AID504327 (National Center for Advancing Translational Sciences (NCATS), 2011).
Several values for one entry are separate records, joined by “and”; a condition that tells them apart may be missing. Equal entries are not always repeated. Among all 390,000 compounds or so, about 820 (0.21%) were called active. The inconclusive results got no clear call from the source; some entries with a clear call stand among them for comparison. Calls come from the whole dose curve; as a rule, active = well fitted inhibition curve with a large enough effect; inconclusive = small, poorly fitted or top-dose-only effect, or another doubt; inactive = no such curve, though single readings can be large or run the other way. A potency beside an inconclusive call is a rough fit, not a confirmed value.

Amino acid sequences for entries named in this document (tags omitted).
UniProt Q92830, whole entry, looked up: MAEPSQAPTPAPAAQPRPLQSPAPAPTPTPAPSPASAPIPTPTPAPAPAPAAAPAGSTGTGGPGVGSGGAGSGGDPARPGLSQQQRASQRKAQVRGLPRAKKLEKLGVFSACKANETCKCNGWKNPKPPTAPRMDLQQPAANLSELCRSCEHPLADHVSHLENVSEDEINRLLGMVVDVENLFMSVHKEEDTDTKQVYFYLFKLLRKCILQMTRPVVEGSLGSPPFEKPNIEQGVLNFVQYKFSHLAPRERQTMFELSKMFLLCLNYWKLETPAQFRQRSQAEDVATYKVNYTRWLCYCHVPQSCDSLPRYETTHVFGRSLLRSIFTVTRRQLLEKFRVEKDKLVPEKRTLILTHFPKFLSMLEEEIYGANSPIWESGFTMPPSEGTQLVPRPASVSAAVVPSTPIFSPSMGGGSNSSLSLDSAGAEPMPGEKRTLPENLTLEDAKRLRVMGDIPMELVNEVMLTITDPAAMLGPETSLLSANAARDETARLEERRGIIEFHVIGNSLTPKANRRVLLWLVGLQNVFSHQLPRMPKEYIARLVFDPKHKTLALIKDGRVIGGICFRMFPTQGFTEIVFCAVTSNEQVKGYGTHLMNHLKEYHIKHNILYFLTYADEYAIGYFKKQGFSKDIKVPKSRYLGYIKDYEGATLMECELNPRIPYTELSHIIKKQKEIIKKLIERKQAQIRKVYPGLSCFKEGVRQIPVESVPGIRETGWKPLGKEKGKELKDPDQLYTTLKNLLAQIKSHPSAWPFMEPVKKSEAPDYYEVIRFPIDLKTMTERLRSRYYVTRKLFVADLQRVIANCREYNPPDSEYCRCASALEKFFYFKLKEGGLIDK

The compounds below were run against Histone acetyltransferase KAT2A (Homo sapiens) (UniProt Q92830) (assay: qHTS Assay for Inhibitors of GCN5L2). Conditions: GCN5L2 HAT assay, ThioGlo1 CoA-SH fluorescence; activity change, negative = inhibition: at 58.9 µM (top of the series) unless noted.
Procedure, shortened: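 Titration-based screen in which CoA formation is detected via maleimide probe ThioGlo1 (50uM) turning fluorescent on thiol reaction; substrates H3(1-25) 75uM and acetyl-CoA 70uM, GCN5L2 20nM, 20 min incubation at room temperature.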
% is set by controls: 0 for no effect and ±100 for the full control effect; potency is the fitted concentration of half-maximal effect.

Row | SMILES | Potency | activity change, negative = inhibition
1 | CC(C)NC(=O)/C(=C\c1cccc([N+](=O)[O-])c1)NC(=O)c1ccccc1 | inconclusive: 6.31 µM [inhibitor, single point] | –
2 | CC(=O)c1ccc(C(C)(C)c2ccc(C(C)=O)s2)s1 | – | inactive: -5.36%
3 | CCOC(=O)C1=C([Si](C)(C)C)c2ccccc2N(S(=O)(=O)C(F)(F)F)C1C(=O)OCC (configuration not stated) | inconclusive: 8.91 µM [inhibitor, single point] | –
4 | COc1ccc(C)cc1NC(=O)c1nn(C)cc1Br | – | inactive: 0.429%
5 | O=C(CCS(=O)(=O)c1cc2c(cc1Cl)NC(=O)CO2)NCc1ccc(F)cc1 | inconclusive: 0.794 µM [inhibitor, single point] | –
6 | O=C(NCC(=O)N1CCN(S(=O)(=O)c2ccccc2F)CC1)c1ccc2ccccc2c1 | – | inactive: -2.36%
7 | COc1ccc(S(=O)(=O)NCCOc2ccccc2)cc1-n1cnnn1 | inconclusive: 39.8 µM [inhibitor, single point] | –
8 | CC/C(=C/c1sc2ccc(C)cc2[n+]1CCO)SC | inconclusive: 14.1 µM [inhibitor, partial curve, poor fit] | –
9 | Cc1nc2sc(C(c3ccco3)N3CCN(c4ccccc4F)CC3)c(O)n2n1 (configuration not stated) | – | inactive: -1.92%
10 | O=[N+]([O-])c1cc([N+](=O)[O-])c(Oc2cc(F)cc(F)c2)cc1NN1CCCCC1 | – | inactive: -1.5%
11 | COc1ccc(NC(=O)CCOc2ccccc2)cc1 | inconclusive: 39.8 µM [inhibitor, single point] | –
12 | CC(=O)c1cc(O)c2ccccc2c1O | inconclusive: 14.1 µM [inhibitor, partial curve, poor fit] | –
13 | CCc1cccc(C)c1NC(=O)C1CCCN1C(=O)NCc1ccccc1 (configuration not stated) | – | inactive: -18.9%
14 | C[C@@]1(C(=O)O)NCCc2cc(O)c(O)cc21 | inconclusive: 17.8 µM [inhibitor, partial curve] | –
15 | Cc1c(CC(=O)NCCc2ccccc2F)c(=O)oc2c(C)c3occ(C(C)(C)C)c3cc12 | – | inactive: -7.51%
16 | CC(C)(O)c1ccccc1CC[C@H](SCC1(CC(=O)O)CC1)c1cccc(/C=C/c2ccc3ccc(Cl)cc3n2)c1 | active: 20 µM | –
17 | O=C(NC(=S)NC1CC1)c1cccnc1 | inconclusive: 39.8 µM [inhibitor, single point] | –
18 | COCCN(CCOC)C(=O)c1cc2c(=O)n3ccccc3nc2s1 | active: 17.8 µM | –
19 | C=CCn1c(O)c(CN2CCCCC2)c(C)c(C#N)c1=O | – | inactive: -2.47%
20 | CCN(CC)c1nc(Nc2ccc([N+](=O)[O-])cc2)nc(N(CC)CC)n1 | inconclusive: 0.708 µM [inhibitor, single point] | –
21 | CCOc1ccc(Nc2nnc(Cc3ccc(OC)cc3)c(=O)[nH]2)cc1 | inconclusive: 39.8 µM [inhibitor, single point] | –
22 | COc1cccc(OC)c1OCCCCN1CCC(Cc2ccccc2)CC1 | – | inactive: -2.43%
23 | O=[N+]([O-])c1cc(S(=O)(=O)Nc2cccc(C(F)(F)F)c2)ccc1-n1nnc2ccccc21 | inconclusive: 7.94 µM [inhibitor, full curve] | –

Row | SMILES | Potency | activity change, negative = inhibition
24 | COc1ccc(NC(=O)CC2C(=O)N(c3ccc(Cl)cc3)C(=S)N2CCc2ccccn2)cc1 (configuration not stated) | inconclusive: 4.47 µM [inhibitor, single point] | –
25 | CC(C)CC(=O)Nc1cc2c3c(c1)CCN3C(=O)CC2 | inconclusive: 8.91 µM [inhibitor, single point] | –
26 | CC1CCCCN1C(=O)c1ccc(Br)o1 (configuration not stated) | inconclusive: 3.55 µM [inhibitor, full curve, poor fit] | –
27 | Cc1cccc(C)c1NC(=O)C(NC(=O)CN1C(=O)c2ccccc2C1=O)c1ccccc1 (configuration not stated) | – | inactive: 13.9%
28 | CCOC(=O)c1ccccc1NS(=O)(=O)c1ccc(N2CCCCS2(=O)=O)cc1 | – | inactive: -4.87%
29 | CCc1nn(CC(=O)NC(C)CC)c(=O)c2cc3c(OC)cccc3n12 (configuration not stated) | inconclusive: 39.8 µM [inhibitor, single point] | –
30 | CCn1nc(NC(C)=O)c2cc3ccc(C)cc3nc21 | – | inactive: -11.2%
31 | COc1ccc(C)cc1S(=O)(=O)N1CCC2(CC1)OCCN2S(=O)(=O)c1cccs1 | – | inactive: -2.13%
32 | Cc1ccc(C)c(N2CCN(S(=O)(=O)c3ccc4c(c3)C(C)(C)C(=O)N4C)CC2)c1 | inconclusive: 3.55 µM [inhibitor, single point] | –
33 | CC[N+](C)(CC)CCOC(=O)C1c2ccccc2Oc2ccccc21 | inconclusive: 5.01 µM [inhibitor, single point] | –
34 | COc1cc(C(=O)NCCC(C)C)c([N+](=O)[O-])cc1OC | inconclusive: 7.08 µM [inhibitor, single point] | –
35 | CCOC(=O)c1ccc(NC(=O)c2cccc3c2C(=O)N(CC2CCCO2)C3)cc1 (configuration not stated) | inconclusive: 0.891 µM [inhibitor, full curve, poor fit] | –
36 | COc1ccc(N2CCOCC2)c(NC(=O)COc2cccc(C)c2)c1 | inconclusive: 11.2 µM [inhibitor, partial curve] | –
37 | O=C(O)CNS(=O)(=O)c1ccc2c3c(cccc13)C(=O)N2 | inconclusive: 39.8 µM [inhibitor, single point] | –
38 | C=CCn1c(SCC(=O)NCc2ccc3c(c2)OCO3)nc2scc(-c3ccccc3)c2c1=O | inconclusive: 0.794 µM [inhibitor, single point] | –
39 | O=C(Nc1cccc([N+](=O)[O-])c1)c1ccc2nc(N3C(=O)CCC3=O)sc2c1 | inconclusive: 0.708 µM [inhibitor, single point] | –
40 | O=C(Nc1ccccc1)N(Cc1ccc2c(c1)OCO2)Cc1nc2ccccc2c(=O)[nH]1 | inconclusive: 28.2 µM [inhibitor, single point] | –
41 | COc1ccc(OC)c(S(=O)(=O)N2Cc3ccccc3CC2C(=O)Nc2nccs2)c1 (configuration not stated) | inconclusive: 0.398 µM [inhibitor, full curve, poor fit] | –
42 | CC(=O)OCC(=O)[C@@]1(O)CC[C@H]2[C@@H]3CCC4=CC(=O)C=C[C@]4(C)[C@@]3(Cl)[C@@H](Cl)C[C@@]21C | inconclusive: 20 µM [inhibitor, partial curve, poor fit] | –
43 | CCN(CC)CCNC(=O)C(=O)NCC(c1cccnc1)N1CCN(c2ccccc2)CC1 (configuration not stated) | inconclusive: 0.794 µM [inhibitor, single point] | –
44 | COc1ccc(OC)c(C(C[N+](=O)[O-])c2c(C)cc3ccccn23)c1 (configuration not stated) | – | inactive: -8.62%
45 | CCNS(=O)(=O)c1ccc(NC(=O)Nc2cccc(OC)c2)cc1 | inconclusive: 39.8 µM [inhibitor, single point] | –
46 | CC(C)CSc1nnc(-c2ccccc2)c(-c2ccccc2)n1 | – | inactive: -9.24%

Row | SMILES | Potency | activity change, negative = inhibition
47 | COc1cc(C2NC(=O)NC(C)=C2C(=O)OCC2CCCCC2)ccc1O (configuration not stated) | inconclusive: 7.08 µM [inhibitor, single point] | –
48 | Cc1cccc(NC(=O)N2CCCc3ccccc32)c1C | inconclusive: 0.447 µM [inhibitor, full curve, poor fit] | –
49 | CN(C)c1ccc2c(-c3ccccc3)c3ccc(=[N+](C)C)cc-3oc2c1 | inconclusive: 25.1 µM [inhibitor, single point] | –
50 | C[C@H](NC(N)=O)C(=O)OCC(=O)Nc1ccc(OC(F)F)cc1 | inconclusive: 2.82 µM [inhibitor, partial curve, poor fit] | –
51 | O=C1OCCN1C(=O)[C@H]1[C@H](c2ccc(F)cc2)C(c2ccccc2)=NN1c1ccccc1 | inconclusive: 22.4 µM [inhibitor, partial curve] and inconclusive: 25.1 µM [inhibitor, single point] | –
52 | Cc1ccc(O)c(N=Nc2nccs2)c1 | – | inactive: 0.465%
53 | OCCC1CN(C2CCSCC2)CCN1C1CCCC1 (configuration not stated) | inconclusive: 39.8 µM [inhibitor, single point] | –
54 | COc1cc([N+](=O)[O-])cc(/C=N/NC(=O)c2ccc(C)nc2)c1O | – | inactive: -12.7%
55 | CC(C)N=C1NN=C(c2cccs2)CS1 | inconclusive: 0.794 µM [inhibitor, single point] | –
56 | O=C(CSc1c(F)c(F)cc(F)c1F)Nc1ccc(C2SCCS2)cc1 | inconclusive: 1.58 µM [inhibitor, full curve] | –
57 | Cc1ccc(-n2nc3c(c2NC(=O)c2cccs2)CSC3)cc1 | active: 3.55 µM | –
58 | Brc1ccc2cccnc2c1 | inconclusive: 39.8 µM [inhibitor, single point] | –
59 | COc1cccc(NC(=O)N2CCC(C(N)=O)(N3CCCCC3)CC2)c1 | inconclusive: 39.8 µM [inhibitor, single point] | –
60 | CCCS(=O)(=O)c1nc(S(=O)(=O)c2ccc(C)cc2)c(NCc2ccccn2)s1 | – | inactive: -3.77%
61 | C/C(=C1\SC(N2CCOCC2)=NC1=O)c1ccc(C)cc1 | inconclusive: 31.6 µM [inhibitor, single point] | –
62 | CCCCc1ccc(NC(=O)Cn2nnc3sc4c(c3c2=O)CCC(C)C4)cc1 (configuration not stated) | – | inactive: -11.8%
63 | Oc1cc2c(cc1O)[C@H]1c3ccc(O)c(O)c3OC[C@@]1(O)C2 | inconclusive: 31.6 µM [inhibitor, partial curve] | –
64 | CS[C@@H]1SC[C@H]2C(=O)N(C)C(C(C)C)C(=O)OC[C@@H](NC(=O)c3cnc4ccccc4n3)C(=O)N[C@@H](C)C(=O)N(C)[C@H]1C(=O)N(C)C(C(C)C)C(=O)OC[C@@H](NC(=O)c1cnc3ccccc3n1)C(=O)N[C@@H](C)C(=O)N2C (some centres not stated) | – | inactive: 15.2%
65 | O=C(Nc1ccc(-c2nc3ccccc3s2)c(O)c1)C1=COCCO1 | active: 25.1 µM | –
66 | COc1ccc(N/C=C2/CCCCC2=O)cc1 | inconclusive: 4.47 µM [inhibitor, full curve, poor fit] | –
67 | Cc1nn(CC(=O)NCc2cccc(Br)c2)c(=O)c2c1sc1ccccc12 | inconclusive: 11.2 µM [inhibitor, partial curve] | –
